Laboratory results reported in paper PMC12929097.

Tests used:
Assay in all cases: co-IP; 293T cells co-transfected for 48 h; cleared lysates from a 6-well plate incubated with 1 μg of specific antibody and Protein A/G PLUS-Agarose; eluate and input analysed by Western blotting
[1] = biological target: chicken interferon regulatory factor 7 (chIRF7) (chicken)
[2] = biological target: chicken IKKϵ (chIKKϵ) (chicken)
[3] = biological target: chicken TBK1 (chTBK1) (chicken)

Measured: binding

B1: chicken interferon regulatory factor 10 (chIRF10) (protein, UniProt Q90WI0 1-416)
chain: MAEPGSPMRLKEWLIAQIDSGRYPGLRWENRERTLFRIPWKHAAKQDYRQQQDAALFRAWAVYKGKYHEGTDKADPSTWKTRLRCALNKSTDFQEVPERSQLDISEPYKVYQIVCDGTRDAEKDEKEGRMQPTSSKDPQGHVAEESHRGTAGTCHMPTLPLLTAHPAERGYHVRGIFYGWSPTRSHLLPRAPSFLPAEDVNHSDCWLHIRLYYCDVLVKELTTRTAEGCRIASRTEGPYGPSCMEQIEFPPPRALGGGGWTVAVTEVLERLLPHLERGVLLWVAPEGVFMKRQCQGRVYWNGPLAPHQDWPNKLEREKTYKLLDTQQFLEELRRYLSHGQPAPQYQIHLCFGEEYPTSTGRHLQKLIMAHVEPVFARELFHHAQRLGPALLRGCPQPCAPAAPGRIAHVLQQLCQP
binds: all assays above

No constants are given. Whether binding was seen depends on the method and setting. In cells and extracts the contact can be indirect. Binding calls can cover weak binding; strength is not graded here.
